PubChem BioAssay AID1259254 – NCATS – 2017
Shown is a random part of about 59,000 deposited reagents. About 1,550 of all reagents (2.6%) count as active. 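G2 share is only a proxy for re-replication; each gene was hit by three separate siRNAs, and active genes were retested.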 Reagents against one gene are numbered here. Further read-outs or replicates are left out here. No sequences are given here. The record does not give: the amount of reagent.

Aim: 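Gene knock-downs that lead to re-replication, shown by excess G2 DNA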 (primary screen)
Cells: human HCT116 colorectal cancer cells
Reagents: single siRNA against human genes
Time to read-out: 3 days
Read-out: 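Imaged Hoechst DNA stain sorts each cell into a cycle phase by DNA amount; per plate, G2 fraction set to 0% for non-targeting and 100% for GMNN siRNA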
Direction: G2 robust z-score: higher = more G2 cells, more excess DNA replication
Call rule: 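An siRNA counts as active if its G2 robust z-score lies at least 5 MADs above the screen median; here such calls match roughly 38% of GMNN control or more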

With knock-down of ZFP41 #1, the screen gave G2 robust z-score 0.0351; inactive.
For ZFP41 #2, the entry reads G2 robust z-score 1.4; inactive.
Against ZFP41 #3, the values are G2 robust z-score 0.0717; inactive.
After knock-down of CDKL1 #1, the record shows G2 robust z-score -0.14; inactive.
After knock-down of CDKL1 #2, the screen gave G2 robust z-score 0.511; inactive.
After knock-down of CDKL1 #3, the record shows G2 robust z-score -0.145; inactive.
Silencing of UQCC1 #1 resulted in: G2 robust z-score -0.912; inactive.
With knock-down of UQCC1 #2, the screen gave G2 robust z-score -1.02; inactive.
UQCC1 #3 showed G2 robust z-score -0.775; inactive.
Depletion of BPI #1 came out at: G2 robust z-score 3.84; inactive.
Depletion of BPI #2 came out at: G2 robust z-score -0.278; inactive.
Depletion of BPI #3 gave: G2 robust z-score -0.268; inactive.
With knock-down of DAPK3 #1 the results were G2 robust z-score -0.854; inactive.
Depletion of DAPK3 #2 gave: G2 robust z-score -0.939; inactive.
DAPK3 #3 scored G2 robust z-score -0.73; inactive.

Look-ups from the list.
For “Call”, ZFP41 #3 reads inactive
BPI #2, G2 robust z-score: -0.278
ZFP41 #1, G2 robust z-score = 0.0351
CDKL1 #2, G2 robust z-score → 0.511
For “G2 robust z-score”, DAPK3 #3 reads -0.73

Additional records:
FANCA #1 scored G2 robust z-score 0.68; inactive.
For FANCA #2, the entry reads G2 robust z-score 1.74; inactive.
Depletion of FANCA #3 gave: G2 robust z-score -0.247; inactive.
For ORC4 #1, the entry reads G2 robust z-score -0.608; inactive.
ORC4 #2 showed G2 robust z-score 0.108; inactive.
ORC4 #3 scored G2 robust z-score 0.673; inactive.
CEBPD #1 gave G2 robust z-score -0.75; inactive.
CEBPD #2 scored G2 robust z-score -1.58; inactive.
For CEBPD #3, the entry reads G2 robust z-score -1.1; inactive.
With knock-down of TMEM223 #1, the record shows G2 robust z-score 2.12; inactive.
TMEM223 #2 scored G2 robust z-score 0.0389; inactive.
For TMEM223 #3, the values are G2 robust z-score -0.532; inactive.
EXOSC6 #1 scored G2 robust z-score 0.718; inactive.
Against EXOSC6 #2, the values are G2 robust z-score 0.613; inactive.
Knock-down of EXOSC6 #3 came out at: G2 robust z-score 0.302; inactive.
